In paper PMC5980149:
These are yes or no findings as the source states them, for the method shown. In cells and extracts the contact can be indirect. Some binding calls cover weakened binding; strength is not graded here.

Protein sequences, listed by entry. Tags and fused reporters are not part of them.
UniProt P45973: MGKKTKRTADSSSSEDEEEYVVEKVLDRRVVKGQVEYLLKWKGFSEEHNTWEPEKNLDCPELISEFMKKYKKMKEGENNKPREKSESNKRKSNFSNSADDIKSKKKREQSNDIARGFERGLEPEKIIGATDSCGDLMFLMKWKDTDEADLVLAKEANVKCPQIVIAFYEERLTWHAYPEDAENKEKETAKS
UniProt P83916: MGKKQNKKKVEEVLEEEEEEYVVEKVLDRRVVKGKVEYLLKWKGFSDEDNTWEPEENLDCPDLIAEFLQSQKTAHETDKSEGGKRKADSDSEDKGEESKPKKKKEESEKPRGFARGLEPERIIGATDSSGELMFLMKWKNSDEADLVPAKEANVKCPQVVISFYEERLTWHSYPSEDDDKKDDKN
UniProt Q13185: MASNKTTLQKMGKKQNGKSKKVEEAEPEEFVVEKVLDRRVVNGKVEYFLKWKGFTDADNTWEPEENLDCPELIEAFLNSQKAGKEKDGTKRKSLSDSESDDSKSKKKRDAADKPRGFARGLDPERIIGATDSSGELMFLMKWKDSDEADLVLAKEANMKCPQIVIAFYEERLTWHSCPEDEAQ

Columns and labels:
[1] = target: heterochromatin protein 1 alpha (human (endogenous in hLCSCs from Huh7)) (UniProt P45973); assay: co-IP; repeat (sequential) co-IP from hLCSC lysates (TLR4 overexpression or knockdown): first an HP1α IP, then an HP1β IP of the HP1α immunoprecipitates, then Western blotting with anti-HP1γ
[2] = target: heterochromatin protein 1 beta (human (endogenous in hLCSCs from Huh7)) (UniProt P83916); assay: as above

Row | binding [1] | binding [2] | Substance
1 | binds |  | heterochromatin protein 1 beta (from UniProt P83916 1-185)
2 |  | binds | heterochromatin protein 1 gamma (from UniProt Q13185 1-183)
